Three sequences from article PMC5974925 can be followed below.

Protein sequences can lack the tags named with them.

For the data set, the target named is T1, SbbR-His6 (Streptomyces bingchenggensis BC04) (UniProt D7C006).
T1 sequence (looked up): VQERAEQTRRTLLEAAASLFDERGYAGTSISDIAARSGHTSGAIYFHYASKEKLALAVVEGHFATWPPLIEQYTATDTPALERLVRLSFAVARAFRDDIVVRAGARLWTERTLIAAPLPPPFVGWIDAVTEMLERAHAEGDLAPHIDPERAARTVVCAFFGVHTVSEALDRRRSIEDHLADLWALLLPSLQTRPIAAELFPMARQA
As to the kind of experiment: EMSA. The following applies: 0.1-0.2 uM SbbR; EMSA: 20 mM Tris base, 2 mM DTT, 5 mM MgCl2, 0.5 ug calf BSA, 5% glycerol, 20 ul, 10 ng probe, 25 C 25 min (poly[d(I-C)] 500 ng when necessary), pH not stated; recombinant protein; residues 34-239; protein details: C-terminal His6 (pET23b, NdeI/XhoI); probe letters rebuilt from the primers and the genome. A general note: A gel shift assay detects complexes by their altered migration in electrophoresis.
For the sequence “CCGCTCACGCTCGGTCATGCCACCCCACACGCCGAACTCGACGCGGTTGTCCAGCGCGTCGGCAAGGCACTCGGTGCGCACCGGACACCCGGTGCAGACCGCTTTGGCCCTGTTCTGTGCCGCGCCTTGAACAAATAGTTCATCTGGATCAGTCGTGCGACAGGCGGCCTGCGCACTCCAGTCGGTTACCCAGCCCATGCTGGCGCCGTCCTCTCCCGATTCGGAGCTCCCCCACGGCGACAAACGGCATATTCACCGTCGCCAGTTGAGGACGTTACGGAAGGCGGACAGGGTGCAACACCCCCTGCGGGCCCAATCTTGGATGGCCCGAACGGACTATGGGTACGCGGCAGATCACCCAACGGAGTGAGCTGACGACATGCGCGACTTACCGCACAAATAGGGGTAGTTCACCCACTCCAAAAGGGGTGGGACATAACACAAGACAGCAAATGGGGCAGGTCTCATCACTCACTTGAGTGAGAGGGGTGATGGTGCTCGACCGCACCGAAGTGACTGGCGTGAATCAGCGTATGCGAACAGGTGGTCCCCTGTCCGGCGATTCGGCACGTAGGCTGCCCCCATGGGTAACAAGCGTTCGGGCGGAGGTCTGTCCCCCGCTCAGCAGGCCGCGAAGTTCCTCGGCGTCAGCGTGCTCGCGGGA (double strand) [Psbi_05811]”, the binding result is “binds”.
“GCAACCGCCGGTACAGCTCCGCCGGGTCGGCCTGAAGCTCCTCGGTGTGCATCCGTACGGCGCCGGGGTGCGCCGGGCAGCCGGTGAGAGGCGATGGGCCGTCGACCGGCGAGGGGTGGTGCACGTTCGTCACGCTGTCAACTCCGGGGCGAGGAGGCGGGAAGTCCAGGGAGTATACGTACAGGTGAGCCGGTCGTCAGCGGCTGAACGTCCCACGACAGGTCAGCTCCAGGCCCGCCGCTCCTGGCCGCGGGGGTCGTCGAGCCGGGTCCACTCGGCGTCGATGCGCCGCCGACGAACACCGCGCGGTCCGTTCCGGAGGTGAGGGTCAGCACGGAGGAGCCGGGGGTGTGTCCGGGAGCCGCGTCCAGGCGCAGATCGGCGTCGATCTGGCGGCCGAGCAGCGGCATCAGATAGGTGGCATTGGGAAAGGTGGGGACCCAGTTCCGCCCGTCCAAATAGGTGTTCCGGCGCCGGTGTCGACGAGGATGGTCCTGCCCTCGCTGCGCGGCAGCCAGGTCTGGAGCGCGGAATTCACGATATTGGTCTCGGCATCCAGAAAATGCGGGGTCAGCCAGAGGGCACCGGCTTCCCAGACTTCCTTCGTGCTTTCCTACGAGCGGCCTCGGCGCGCGCGGTATCCGTCACGTGACTGCACCTGCGCGCACGGCCCGCACACTGGGCCCGGCGGCTTGTAGCCTGGGTGGGGCCAAGGCACGGCGGCTCCGATCGAAGAGCCATATTCCCTGGAGACTCCGTGGACGAGCACGCAGGCGGCCCCGGTGCGGTCACCGGACCGCAGCCGGAGGCGGGGAAGCCGATCGTCGGCCGGGACGCGGAGCTGGCACGCCTGTTTCG (double strand) [Psbi_00827]”: the binding result is “binds”.
As for “ATTGACCAGCGCCTTTCGGACGTACGCCTCCGGATTCTCCCCCGCGATCCGCCGCCACTTCGGCCACACCTTGGCCAGCACCGTCTGCAGCAGATCCTCGGCCAGATGCGCATCCCCGGTGAGCAGCCAGGCCACCCTCAGCAGCCGAGGCCCGCGCGCGGCGACGAACTCCTCGAAGCCGGGCGTCGCGCCCGTCACTGTCGTGTCCTCGCCATGGCGCCCCTGTCCGAACCGTGTCTTTCACACATGGTGAACGCCATGACGCCGGGACGGGGTTGCCTCAAGCCCAGAATCCGCCAACCGGCGGTCAACCAGCACCCCCGCATGGCGATTCGCACGGCCAATTGCCGAGTCAAGAGACTCGATGAAAATCAGCCACGCCAGACTTAATATCGCCAAGAATCACGGCCGACATCGTGCGCGCCAAAGCGGGCAACAAGGGGTACGCTCCTCAATCCACACCCTCAAGCGCGTGACCTGCGTCACAAAAATGTGACAGCTCTGGTCGGCGTGACGCCGCGTGTCGCAAACTCACTGCGATCTTCTGTTAGAAGAATTGCTCACGGGGAACAGCGTTACGGGGGAGCAACAGTGGGTCATCTGTCGATTCAGGTACGCGCTTCCAGATCCAGCGGGTCGCCGGTTTTGAGGCATATCGCCGCTGATATTCACTTAAGATTCAGGAAACCTGGACACCTCGCATTCCAGCACCTCTCCAGGGTGACTCTGTGAATTCCGCCGGGTATCCGCTGTCTCGGCAGCAGCAGACCGTCTGGGCGTCGCAGCAACTCCAGCCAGACGGGGACTCCTACCATGTTCCCGTGGCCTACCGCCTTTCAGGTCACATCGCCGAGAAGGAGCTCGCCGAGGCCATCCGGTCGGTGCTGGGCCGGCACCCCGTGCTGCGTGTGGCGATTCATCAATTATCGAGCGGCGAACTTCGCCAGAGCGTACGCCCCACGCCGGATCGCGTCCTGGATGTAC (double strand) [Psbi_06451]”, the binding result is recorded as “binds”.
